Reference: article doi:10.1101/2022.01.19.477021
These are yes or no findings as the source states them, for the method shown.

Columns and labels:
[1] = target: Crn1-ΔCC (aa 1-604) (S. cerevisiae) (UniProt Q06440); experiment: AUC
[2] = target: Crn1-IDR (intrinsically disordered region, aa 401-604) (S. cerevisiae) (UniProt Q06440); experiment: AUC

Binder	binding [1]	binding [2]
Crn1-ΔCC (aa 1-604) (domain or fragment, UniProt Q06440 1-604) MSGKFVRASKYRHVFGQAAKKELQYEKLKVTNNAWDSNLLKTNGKFIAVNWNASGGGAFAVIPIEEVGKAPDQVPLFRGHTAQVLDTDFDPFNDHRIASGSDDSKIGIWDIPENYKFHDHVDEDGEPIDIKPVKFLTGHARKVGHVLYHPVAENVLASSSGDYTVKLWNVETGKDMITLKHPDMVTSMSFSYDGNYLATVARDKKLRVWNIREEKIVSEGPAHTGAKNQRVVWLGNSDRLATTGFSKLSDRQIGIWDAFNIEKGDLGGFYTVDQSSGILMPFYDEGNKILYLVGKGDGNIRYYEFQNDELFELSEFQSTEAQRGFAVAPKRMVNVKENEVLKGFKTVVDQRIEPVSFFVPRRSEEFQEDIYPDAPSNKPALTAEEWFSGKSVEGPILVSMRSIYDGSAPSFHEAKRPQQPTTQETALEEKKEQPKVEKPISESEKEVKQEAPKSPSPLKSASSSSTINHVLKEDNSINKLLKKSSDIDQVNNAEDPSRDTSGWEEADDEPAPIKIETPVTPTETKKDRTPKVEPSKELKPEPVSIATDRKQEQSLPQEEKSSEKTKSPEQEKSATPPSSITAAKTAITASSKEEPSAARTSPKS	no binding (tested: 9.2 µM)	
Crn1-IDR (intrinsically disordered region, aa 401-604) (domain or fragment, UniProt Q06440 401-604) RSIYDGSAPSFHEAKRPQQPTTQETALEEKKEQPKVEKPISESEKEVKQEAPKSPSPLKSASSSSTINHVLKEDNSINKLLKKSSDIDQVNNAEDPSRDTSGWEEADDEPAPIKIETPVTPTETKKDRTPKVEPSKELKPEPVSIATDRKQEQSLPQEEKSSEKTKSPEQEKSATPPSSITAAKTAITASSKEEPSAARTSPKS		no binding (tested: 3 µM)
